Over roughly 33,000 sequences, “E-score (-0.5 to 0.5)” has its median near -0.0059; the highest 2% begin near 0.26. The list shows a part of the results.
What follows are sequences tested against T1, Cin5 (UniProt P40917) (assay: PBM E-score (8-mer binding enrichment) (E-score (-0.5 to 0.5)); higher = stronger / more preferred TF binding). Conditions: protein concentration: 100 nM; construct: GST-full length.
T1 sequence: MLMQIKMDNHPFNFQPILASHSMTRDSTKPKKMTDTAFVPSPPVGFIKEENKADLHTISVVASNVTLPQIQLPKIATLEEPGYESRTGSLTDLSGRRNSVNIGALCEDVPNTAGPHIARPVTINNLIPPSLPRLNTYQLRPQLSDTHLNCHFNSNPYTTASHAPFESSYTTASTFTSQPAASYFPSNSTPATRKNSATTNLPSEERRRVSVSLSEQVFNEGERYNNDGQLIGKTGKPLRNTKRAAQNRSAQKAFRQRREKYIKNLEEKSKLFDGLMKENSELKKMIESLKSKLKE
Procedure, shortened: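 Full-length yeast transcription factors or their DNA-binding domains, GST-tagged and expressed with PURExpress, were applied at about 100-200 nM to universal all-10-mer Agilent arrays. These arrays had been made double-stranded by primer extension on fresh or once-stripped slides. Detection used fluorescent anti-GST, normalisation used masliner, and E-scores for ungapped eight-base words pooled with reverse complements came from the Universal PBM Analysis Suite.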

Row | Sequence | PBM E-score
1 | GCGGTACA | -0.0496
2 | ATCCAGTC | 0.068
3 | AAGCGGTC | 0.028
4 | AGCACACT | 0.108
5 | AGACTACC | 0.028
6 | GCATAGCC | -0.283
7 | ATCAAACC | 0.212
8 | CTTCGCTC | 0.0176
9 | GAAATCCA | 0.147
10 | CTGCCGTC | -0.172
11 | CAGCTGGG | -0.0726
12 | GGTTAATA | 0.0958
13 | GGGTGAAC | -0.11
14 | CTGTTCGA | -0.276
15 | CTAACGAA | -0.0791
16 | ATTCCTCC | 0.00636
17 | AAGTGATT | 0.156
18 | CTGTTGCC | -0.133
19 | GACTTTTA | -0.117
20 | ATAGACCG | -0.117
21 | GCAAAAGA | -0.0782
22 | ACGATTAG | 0.158
23 | GTGTTTAA | 0.0477
24 | ATAGCCCG | -0.198
25 | AGGGACTG | -0.221

Row | Sequence | PBM E-score
26 | ATACGCGG | 0.0193
27 | GCGTACTA | -0.0261
28 | AAGACGAT | 0.055
29 | ATGAGCAA | 0.0945
30 | AGCGCGCC | -0.0229
31 | AGGACAGC | -0.103
32 | GACACCCC | -0.263
33 | CACTAACC | 0.00512
34 | ACAAGTGA | -0.0377
35 | CGAAGTGA | 0.0593
36 | GCACGAGC | -0.116
37 | ACGTTCGG | -0.16
38 | AGAAACAT | 0.135
39 | GCATAGAC | -0.205
40 | AGGGACCA | -0.109
41 | GCTCCGCC | -0.123
42 | ACTGTTAG | -0.14
43 | AGTCTACC | -0.13
44 | AGAAACTC | -0.0376
45 | CCGGTCAC | -0.152
46 | CTCAACTC | 0.0465
47 | AGCGCACT | -0.0188
48 | ACCATCGG | -0.108
49 | AACGATCT | -0.0923
50 | GCTACTCA | 0.105

Row | Sequence | PBM E-score
51 | ATACAGGA | 0.0489
52 | ACCGCGTA | 0.0207
53 | CCAACGGA | -0.112
54 | AAATCATG | 0.16
55 | CCGTAAAG | -0.0264
56 | GGCGCCCA | -0.0459
57 | CTGGTGGA | -0.16
58 | GGAGCCCC | -0.299
59 | CAAAGAGC | -0.134
60 | CTTTTCAA | -0.0158
61 | ATTCAGCA | 0.0523
62 | CGTAGACA | -0.149
63 | TGCCCCAA | 0.124
64 | GAGGTTAC | -0.0187
65 | CGCCGAGC | -0.119
66 | CCTTGTGC | -0.301
67 | GAAAATAC | 0.0752
68 | CAGTATAC | 0.0487
69 | AACGAATG | 0.206
70 | CAAATACG | 0.0308
71 | CGGGGTTC | -0.0898
72 | GGGGGAAA | -0.0854
73 | CTAAATGC | 0.00209
74 | AAAGGGAA | -0.112
75 | CAACAGAA | -0.0337

Row | Sequence | PBM E-score
76 | ATTAGAAG | 0.0844
77 | AGGTTGCA | 0.11
78 | ATCCGAGG | -0.165
79 | AAATCGAA | 0.11
80 | GATGGTTA | 0.0172
81 | CAGACAAG | -0.0421
82 | CCAGGAGG | -0.262
83 | CAGGCCAG | -0.14
84 | ATGCGAAG | -0.0237
85 | CCAAAATA | 0.113
86 | AATCGATG | 0.182
87 | AAAGGTAC | -0.0367
88 | TCCCCCGA | -0.343
89 | ATACTGAG | 0.214
90 | CATGTCAC | 0.15
91 | GCAAGTCC | -0.173
92 | AACATGCC | -0.0633
93 | CCGCTACA | 0.00468
94 | ATTACCAA | 0.27
95 | AAGGGCCG | -0.285
96 | GGTACCCA | -0.31
97 | CTCGGGCA | -0.0222
98 | CGAGCCGA | -0.0217
99 | ATGACTCC | -0.00817
100 | CTTAGTGA | 0.0718

Row | Sequence | PBM E-score
101 | AGACCATA | 0.137
102 | AAAGGGAT | -0.0211
103 | GCTTACAA | 0.248
104 | AGCCTCGA | -0.0892
105 | CTCTCCTC | -0.288
106 | ACCCGCGG | 0.236
107 | CGTTCTAC | -0.0798
108 | AGAAAGCC | -0.07
109 | TACCCGCA | 0.16
110 | CAATGGAG | -0.0772
111 | CAAGAAAA | 0.114
112 | AGTCACCG | -0.195
113 | AGAAACCC | -0.0645
114 | AGCAGCCA | 0.0323
115 | TAATGTAA | 0.33
116 | GACTTGAA | -0.109
117 | CCCTGAAG | -0.132
118 | CAACTACA | 0.167
119 | CCCTGGGA | -0.328
120 | GCCAGCCA | -0.193
121 | ATGTACCA | 0.00112
122 | CGGTGGAC | -0.104
123 | GACATGGA | 0.0278
124 | CCTGGAGA | -0.184
125 | CCTCCTCC | -0.278

Look-ups from the list.
AGCACACT | PBM E-score: 0.108
ATTCAGCA | PBM E-score: 0.0523

For convenience, part of the list above:
Row | Sequence | PBM E-score
109 | TACCCGCA | 0.16
110 | CAATGGAG | -0.0772
111 | CAAGAAAA | 0.114
112 | AGTCACCG | -0.195

Further results follow.

Row | Sequence | PBM E-score
126 | GATGTGAC | -0.0723
127 | CACTCGAG | -0.094
128 | GATCGATC | 0.0112
129 | CCTTGTAC | -0.093
130 | CCCCATAC | 0.0266
131 | AGCTCAGG | -0.0925
132 | AGTTTTGG | 0.0675
133 | GTGACCTA | -0.0621
134 | CGTGGTAG | -0.0737
135 | AAATCCGA | 0.0419
136 | CGCTGATC | 0.157
137 | CCAAGGTC | -0.0444
138 | GCGGTCTA | 0.0342
139 | AGCAATTG | 0.106
140 | ACGCAGCT | -0.12
141 | GGAACCAC | -0.0344
142 | CATCCAGG | -0.134
143 | CACTATAA | -0.0724
144 | ATATACTC | 0.209
145 | AAGCCGGC | 0.168
146 | AGCGTATA | 0.158
147 | AGGGCATC | -0.195
148 | CATGCGTA | 0.145
149 | TGCACGCA | -0.149
150 | CCAAGAAA | 0.0846

Row | Sequence | PBM E-score
151 | AATACTAA | 0.208
152 | GGTAGGAA | -0.0518
153 | ATCAAAAT | -0.0169
154 | AACGTTCA | -0.124
155 | TAACCGAA | -0.106
156 | ATCTGATC | 0.0996
157 | CCGTCGCC | -0.0908
158 | GGTGAATA | 0.119
159 | AAACAGAC | 0.22
160 | ACGGACTA | -0.0462
161 | CGCTTAAG | -0.0869
162 | ATAGCTGG | -0.0708
163 | AGGGGCGG | -0.059
164 | ACCTAGCG | -0.0233
165 | CAATAGGG | 0.045
166 | CGAGTCCC | -0.058
167 | ACATTGTC | 0.236
168 | AAACCCAC | 0.116
169 | CCGCTGTC | -0.0743
170 | CACGTAAG | 0.288
171 | AAGCCTGC | -0.0381
172 | TATACCGA | 0.102
